Experimental data reported in paper PMC11585782, “The Plastidial Protein Acetyltransferase GNAT1 Forms a Complex With GNAT2, yet Their Interaction Is Dispensable for State Transitions” (Molecular & Cellular Proteomics : MCP, 2024).
These are yes or no findings as the source states them, for the method shown. Binding seen in cells or lysates may run through a third protein. Some results given as binding are weak or reduced against the parent protein; the word gives no strength. Where a sequence is shown, tags or fusion partners need not be part of it.

Amino acid sequences for entries named in this document (tags omitted). Residues count along the entry.
UniProt Q7X9V3, residues 59-258: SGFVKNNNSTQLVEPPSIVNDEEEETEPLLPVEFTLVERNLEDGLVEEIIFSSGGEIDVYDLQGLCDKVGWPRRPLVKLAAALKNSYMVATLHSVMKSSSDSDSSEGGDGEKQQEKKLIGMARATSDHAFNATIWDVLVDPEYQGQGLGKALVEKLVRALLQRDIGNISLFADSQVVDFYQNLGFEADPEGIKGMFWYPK

T1: GNAT3 C-terminally fused to a split-YFP domain (Arabidopsis thaliana) (UniProt Q940H2)
T1 sequence: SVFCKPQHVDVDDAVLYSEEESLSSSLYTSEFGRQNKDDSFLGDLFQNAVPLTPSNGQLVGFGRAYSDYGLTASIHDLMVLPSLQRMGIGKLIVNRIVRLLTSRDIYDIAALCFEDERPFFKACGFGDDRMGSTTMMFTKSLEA


Experiments:
[1] = molecular target: GNAT2 C-terminally fused to a split-YFP domain (Arabidopsis thaliana) (UniProt Q7X9V3); experiment: split reporter; BiFC in transiently transformed Arabidopsis Col-0 protoplasts; GNATs C-terminally fused to the N- or C-terminal domain of split-YFP; YFP read by confocal laser scanning microscopy after 8 to 24 h
[2] = molecular target: T1, GNAT3 C-terminally fused to a split-YFP domain (Arabidopsis thaliana); experiment: as above

binding [1] | binding [2] | Binder
binds | no binding | GNAT1 C-terminally fused to a split-YFP domain (enzyme, UniProt Q9C666 38-197) AMQRKPPSYSISDEDLESRGFLLRRTTEGLNLDQLNSVFAAVGFPRRDTAKIEVALQHTDALLWVEYEKTRRPVAFARATGDGVFNAIIWDVVVDPSFQSCGLGKAVMERLIEDLQVKGICNIALYSEPRVLGFYRPLGFVSDPDGIKGMVFIRKQRNKK
binds | – | GNAT3 C-terminally fused to a split-YFP domain (enzyme, UniProt Q940H2 94-237) SVFCKPQHVDVDDAVLYSEEESLSSSLYTSEFGRQNKDDSFLGDLFQNAVPLTPSNGQLVGFGRAYSDYGLTASIHDLMVLPSLQRMGIGKLIVNRIVRLLTSRDIYDIAALCFEDERPFFKACGFGDDRMGSTTMMFTKSLEA
